Source: PubChem BioAssay AID1259308 (NCATS, 2017)

Purpose: 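Candidate targets for better recombinant protein yield in mammalian cells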 (primary screen)
Cells: human HEK293 embryonic kidney cells stably expressing firefly luciferase (HEK-CMV-Luc2-Hygro)
Knock-down reagent: single siRNA against human genes, 0.8 pmol siRNA per well
Duration: 72 h
Detection: 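Reporter luminescence and viable-cell signal on separate replicate plates, given as percent of non-targeting control and median/MAD z-scores, plus per-cell luciferase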
Direction: total luciferase, z-score and total luciferase, % of control: higher = more reporter protein produced
Hit rule: 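Active when the median/MAD z-score for overall luciferase is greater than 3; a gene was taken forward for validation with new siRNAs if at least two of its three siRNAs passed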
Meaning of the calls: active = raised luciferase; inactive = no rise
Here is one part, drawn at random, of about 59,000 deposited reagents. About 1,510 of them (2.6%) count as active. 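Calls use total luciferase alone and ignore viability, so some active siRNAs may act by altering cell number.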 Not all columns of the deposit are shown.

Knock-down of CPA1 (carboxypeptidase A1) [SID160747205] came out at: total luciferase, z-score 0.0289; total luciferase, % of control 82.5; inactive.
CPA1 (carboxypeptidase A1) [SID160747216] scored total luciferase, z-score -0.889; total luciferase, % of control 64.2; inactive.
Knock-down of CPA1 (carboxypeptidase A1) [SID160747227] gave: total luciferase, z-score 0.574; total luciferase, % of control 93.3; inactive.
ASXL3 (ASXL transcriptional regulator 3) [SID160750578] gave total luciferase, z-score 3.1; total luciferase, % of control 143; active.
For ASXL3 (ASXL transcriptional regulator 3) [SID160750579] the deposit lists total luciferase, z-score 0.0126; total luciferase, % of control 82.1; inactive.
ASXL3 (ASXL transcriptional regulator 3) [SID160750580] scored total luciferase, z-score 0.858; total luciferase, % of control 99; inactive.
With knock-down of GOLGA1 (golgin A1) [SID160772460] the results were total luciferase, z-score 1.23; total luciferase, % of control 106; inactive.
After knock-down of GOLGA1 (golgin A1) [SID160772468], the record shows total luciferase, z-score 1.19; total luciferase, % of control 106; inactive.
GOLGA1 (golgin A1) [SID160772474] scored total luciferase, z-score 0.519; total luciferase, % of control 92.2; inactive.
Against RAPGEFL1 (Rap guanine nucleotide exchange factor like 1) [SID160740294], the entry reads total luciferase, z-score -2.34; total luciferase, % of control 35.3; inactive.
After knock-down of RAPGEFL1 (Rap guanine nucleotide exchange factor like 1) [SID160740295], the record shows total luciferase, z-score -0.711; total luciferase, % of control 67.8; inactive.
Knock-down of RAPGEFL1 (Rap guanine nucleotide exchange factor like 1) [SID160740296] came out at: total luciferase, z-score 0.45; total luciferase, % of control 90.8; inactive.
VWDE (von Willebrand factor D and EGF domains) [SID160761761] gave total luciferase, z-score -0.592; total luciferase, % of control 70.1; inactive.
VWDE (von Willebrand factor D and EGF domains) [SID160761762] gave total luciferase, z-score 0.263; total luciferase, % of control 87.1; inactive.
VWDE (von Willebrand factor D and EGF domains) [SID160761763] gave total luciferase, z-score 1.12; total luciferase, % of control 104; inactive.
Against PFN2 (profilin 2) [SID160714185], the entry reads total luciferase, z-score -0.964; total luciferase, % of control 62.7; inactive.
Silencing of PFN2 (profilin 2) [SID160714186] resulted in: total luciferase, z-score 0.341; total luciferase, % of control 88.7; inactive.
For PFN2 (profilin 2) [SID160714188] the deposit lists total luciferase, z-score 1.31; total luciferase, % of control 108; inactive.
With knock-down of TTC8 (tetratricopeptide repeat domain 8) [SID160756042], the record shows total luciferase, z-score 0.157; total luciferase, % of control 85; inactive.
With knock-down of TTC8 (tetratricopeptide repeat domain 8) [SID160756043], the screen gave total luciferase, z-score 1.51; total luciferase, % of control 112; inactive.
TTC8 (tetratricopeptide repeat domain 8) [SID160756044] scored total luciferase, z-score -0.136; total luciferase, % of control 79.2; inactive.
Depletion of STAU1 (staufen double-stranded RNA binding protein 1) [SID160717453] resulted in: total luciferase, z-score -0.00657; total luciferase, % of control 81.8; inactive.
After knock-down of STAU1 (staufen double-stranded RNA binding protein 1) [SID160717454] the results were total luciferase, z-score -0.621; total luciferase, % of control 69.5; inactive.
After knock-down of STAU1 (staufen double-stranded RNA binding protein 1) [SID160717455], the screen gave total luciferase, z-score -0.636; total luciferase, % of control 69.2; inactive.
Silencing of EHD1 (EH domain containing 1) [SID160729567] came out at: total luciferase, z-score 0.0486; total luciferase, % of control 82.9; inactive.
Against EHD1 (EH domain containing 1) [SID160729568] the deposit lists total luciferase, z-score -0.696; total luciferase, % of control 68.1; inactive.
For EHD1 (EH domain containing 1) [SID160729569] the deposit lists total luciferase, z-score 0.0853; total luciferase, % of control 83.6; inactive.
MED23 (mediator complex subunit 23) [SID160722205] showed total luciferase, z-score -1.69; total luciferase, % of control 48.2; inactive.
Against MED23 (mediator complex subunit 23) [SID160722206] the deposit lists total luciferase, z-score -1.18; total luciferase, % of control 58.5; inactive.
With knock-down of MED23 (mediator complex subunit 23) [SID160722208], the record shows total luciferase, z-score -1.9; total luciferase, % of control 44.2; inactive.
Against ZNF275 (zinc finger protein 275) [SID160729310], the values are total luciferase, z-score 0.834; total luciferase, % of control 98.5; inactive.
ZNF275 (zinc finger protein 275) [SID160729311] scored total luciferase, z-score 0.249; total luciferase, % of control 86.8; inactive.
For ZNF275 (zinc finger protein 275) [SID160729312] the deposit lists total luciferase, z-score 0.507; total luciferase, % of control 92; inactive.
After knock-down of CEMIP (cell migration inducing hyaluronidase 1) [SID160745829], the record shows total luciferase, z-score -0.239; total luciferase, % of control 77.1; inactive.
CEMIP (cell migration inducing hyaluronidase 1) [SID160745832] showed total luciferase, z-score -1.16; total luciferase, % of control 58.8; inactive.
CEMIP (cell migration inducing hyaluronidase 1) [SID160745833] scored total luciferase, z-score -0.573; total luciferase, % of control 70.5; inactive.
After knock-down of FEV (FEV transcription factor, ETS family member) [SID160742083] the results were total luciferase, z-score -0.36; total luciferase, % of control 74.7; inactive.
Against FEV (FEV transcription factor, ETS family member) [SID160742084], the values are total luciferase, z-score -0.32; total luciferase, % of control 75.5; inactive.
With knock-down of FEV (FEV transcription factor, ETS family member) [SID160742085], the screen gave total luciferase, z-score -0.101; total luciferase, % of control 79.9; inactive.
With knock-down of PDLIM5 (PDZ and LIM domain 5) [SID160728851], the record shows total luciferase, z-score -0.978; total luciferase, % of control 62.4; inactive.
Against PDLIM5 (PDZ and LIM domain 5) [SID160728852], the entry reads total luciferase, z-score 0.452; total luciferase, % of control 90.9; inactive.
PDLIM5 (PDZ and LIM domain 5) [SID160728853] scored total luciferase, z-score -0.0356; total luciferase, % of control 81.2; inactive.

Entries above called active, once more:
ASXL3 (ASXL transcriptional regulator 3) [SID160750578] — total luciferase, z-score = 3.1; total luciferase, % of control = 143; Call = active
